Source: PMC10443802 (JCI Insight, 2023)

System: OATP1B2
Assay: Untargeted metabolomics of plasma and DRG, WT vs OATP1B2-deficient mice
Type: in vivo, mouse
[1] = untargeted metabolomics, WT vs OATP1B2-deficient mice, supplement sheet "Figure 5B"
[2] = Figure 5B source data (volcano plot), untargeted metabolomics, WT vs OATP1B2-deficient mice, log2 fold change of metabolite level
[3] = untargeted metabolomics, sheet "Figure 5C", WT vs OATP1B2-deficient mice
[4] = untargeted metabolomics, WT vs OATP1B2-deficient mice, supplement sheet "Figure 5B" (volcano plot)

Structure (SMILES) | Log2FoldChange [3] | Log2FoldChange [4] | also measured
NC(=O)c1cccnc1 [nicotinamide] | – | – | Log2FoldChange [1]: -0.0145
O=C([O-])c1ccc[n+]([C@@H]2O[C@H](CO)[C@@H](O)[C@H]2O)c1 [nicotinate ribonucleoside] | – | – | Log2FoldChange [2]: -0.2515
CC/C=C\C/C=C\C/C=C\C/C=C\C/C=C\C/C=C\CCCCC(=O)O [nisinate (24:6n3)] | 0.4647 | – | Log2FoldChange [1]: 0.05658
O=C(O)CCCCCCCCCCCCCCCCCC(=O)O [nonadecanedioate (C19-DC)] | – | 0.5261 | –
Cc1ccccc1OS(=O)(=O)O [o-cresol sulfate] | – | 0.263 | –
O=C(O)CCCCCCCCCCCCCCCCC(=O)O [octadecanedioate (C18-DC)] | – | 0.4647 | –
CCCCCCCC(=O)O[C@H](CC(=O)O)C[N+](C)(C)C [octanoylcarnitine (C8)] | 0.9709 | 0.696 | –
CCCCCCCC/C=C\CCCCCCCC(N)=O [oleamide] | – | 0.4647 | –
CCCCCCCC/C=C\CCCCCCCC(=O)NCCO [oleoyl ethanolamide] | 0.09761 | – | Log2FoldChange [2]: -0.2515
CCCCCCCC/C=C\CCCCCCCC(=O)OC(CC(=O)[O-])C[N+](C)(C)C (centres unmarked) [oleoylcarnitine (C18:1)] | – | 0.6415 | –
CCCCCCCC/C=C\CCCCCCCC(=O)OCC[N+](C)(C)C [oleoylcholine] | 0.848 | – | Log2FoldChange [1]: 0.2016
CC[C@H](NC(=O)CC[C@H](N)C(=O)O)C(=O)NCC(=O)O [ophthalmate] (γGlu-[Abu]-Gly-OH) | 0.2265 | – | Log2FoldChange [1]: -0.1203
O=C(O)c1cc(=O)[nH]c(=O)[nH]1 [orotate] | 0.05658 | – | –
NC(CC1C(=O)Nc2ccccc21)C(=O)O (centres unmarked) [oxindolylalanine] | -0.1844 | – | Log2FoldChange [2]: -0.2176
Cc1ccc(O[C@@H]2O[C@H](C(=O)O)[C@@H](O)[C@H](O)[C@H]2O)cc1 [p-cresol glucuronide*] | – | – | Log2FoldChange (mouse, in vivo): 3.558
Cc1ccc(OS(=O)(=O)O)cc1 [p-cresol sulfate] | – | 3.216 | –
CCCCCCCCCCCCCCCC(N)=O [palmitamide (16:0)] | – | 0.4854 | –
CCCCCCCCCCCCCCCC(=O)O [palmitate (16:0)] | 0.111 | – | Log2FoldChange [2]: -0.1844
CCCCCC/C=C\CCCCCCCC(N)=O [palmitoleamide (16:1)*] | – | 0.4005 | –
CCCCCC/C=C\CCCCCCCC(=O)O [palmitoleate (16:1n7)] | 0.189 | – | –
CCCCCC/C=C\CCCCCCCC(=O)NCCO [palmitoleoyl ethanolamide*] | -0.2345 | – | –
CCCCCC/C=C\CCCCCCCC(=O)O[C@H](CC(=O)[O-])C[N+](C)(C)C [palmitoleoylcarnitine (C16:1)*] | – | 0.7049 | –
CCCCCCCCCCCCC/C=C/[C@@H](O)[C@H](COP(=O)([O-])OCC[N+](C)(C)C)NC(=O)CCCCCCCCCCCCCCC [palmitoyl sphingomyelin (d18:1/16:0)] | -0.152 | – | Log2FoldChange [1]: 0.09761
CCCCCCCCCCCCCCCC(=O)OC(CC(=O)[O-])C[N+](C)(C)C (centres unmarked) [palmitoylcarnitine (C16)] | 0.08406 | 0.251 | –
CCCCCCCCCCCCCCCC(=O)OCC[N+](C)(C)C [palmitoylcholine] | 1.07 | – | –
CC(C)(CO)[C@@H](O)C(=O)NCCC(=O)NCCS [pantetheine] | 0.2388 | – | –
CCCCCCCCCCCCCCC(N)=O [pentadecanamide (15:0)*] | – | 0.3448 | –

Structure (SMILES) | Log2FoldChange [3] | Log2FoldChange [4] | also measured
CCCCCCCCCCCCCCC(=O)O [pentadecanoate (15:0)] | – | – | Log2FoldChange [1]: 0
CCCCCCCCCCCCCCC(=O)O[C@H](CC(=O)[O-])C[N+](C)(C)C [pentadecanoylcarnitine (C15)*] | -0.1681 | 0.8237 | –
O=S(=O)(O)C(F)(F)C(F)(F)C(F)(F)C(F)(F)C(F)(F)C(F)(F)C(F)(F)C(F)(F)F [perfluorooctanesulfonate (PFOS)] | – | – | Log2FoldChange [2]: -1.358
O=C(O)[C@H]1O[C@@H](Oc2ccccc2)[C@H](O)[C@@H](O)[C@@H]1O [phenol glucuronide] | – | – | Log2FoldChange (mouse, in vivo): 0.903
O=S(=O)(O)Oc1ccccc1 [phenol sulfate] | – | – | Log2FoldChange (mouse, in vivo): 0.4854 and 0.585
O=C(O)Cc1ccccc1 [phenylacetate] | – | 0.4751 | –
C[N+](C)(C)CC(CC(=O)[O-])OC(=O)Cc1ccccc1 (centres unmarked) [phenylacetylcarnitine] | – | 0.7485 | –
O=C(O)CC[C@H](NC(=O)Cc1ccccc1)C(=O)O [phenylacetylglutamate] | – | 0.546 | –
O=C(O)CNC(=O)Cc1ccccc1 [phenylacetylglycine] | 0.546 | 0.3219 | –
O=C(Cc1ccccc1)NCCS(=O)(=O)O [phenylacetyltaurine] | – | 0.4005 | –
N[C@@H](Cc1ccccc1)C(=O)O [phenylalanine] | 0.09761 | – | –
O=C(O)C(O)Cc1ccccc1 (centres unmarked) [phenyllactate (PLA)] | – | – | Log2FoldChange [1]: 0.1375
O=C(O)CNC(=O)CCc1ccccc1 [phenylpropionylglycine] | – | 1.269 | –
O=C(O)C(=O)Cc1ccccc1 [phenylpyruvate] | 0.3896 | – | Log2FoldChange [2]: -0.5146
C=C(OP(=O)(O)O)C(=O)O [phosphoenolpyruvate (PEP)] | -0.454 | – | Log2FoldChange [1]: 0.02857
NCCOP(=O)(O)O [phosphoethanolamine] | 0.111 | – | Log2FoldChange [1]: 0.2016
CC(C)(COP(=O)(O)O)[C@@H](O)C(=O)NCCC(=O)NCCS [phosphopantetheine] | 0.3896 | – | –
CC(C)CCC[C@@H](C)CCC[C@@H](C)CCCC(C)CC(=O)O (some centres unmarked) [phytanate] | – | – | Log2FoldChange [2]: -0.8625
CCCCCCCCCCCCCC[C@@H](O)[C@@H](O)[C@@H](N)CO [phytosphingosine] | 0.275 | – | –
O=C(O)c1ccccn1 [picolinate] | – | – | Log2FoldChange [1]: 0.08406
O=C(O)CCCCCC(=O)O [pimelate (C7-DC)] | -0.074 | – | Log2FoldChange [2]: -0.4344
O=C(O)C1CCCCN1 (centres unmarked) [pipecolate] | 0.2016 | – | –
O=C(O)C1CC(O)CN1C(=O)C1CCCN1 (centres unmarked) [pro-hydroxy-pro] (H-Pro-[Hyp]-OH; configuration not given here) | 0.02857 | – | Log2FoldChange [1]: 0.05658
O=C(O)[C@@H]1CCCN1 [proline] | 0.1763 | – | Log2FoldChange [1]: 0.02857
O=C(O)CNC(=O)[C@@H]1CCCN1 [prolylglycine] (H-Pro-Gly-OH) | 0.263 | – | –
CCC(=O)OC(CC(=O)[O-])C[N+](C)(C)C (centres unmarked) [propionylcarnitine (C3)] | 0.3896 | – | Log2FoldChange [1]: 0.09761
CCC(=O)NCC(=O)O [propionylglycine] | – | 0.4854 | –

Structure (SMILES) | Log2FoldChange [3] | Log2FoldChange [4] | also measured
O=c1[nH]cc([C@@H]2O[C@H](CO)[C@@H](O)[C@H]2O)c(=O)[nH]1 [pseudouridine] | 0.263 | – | Log2FoldChange [1]: 0.1763
NCCCCN [putrescine] | 0.3561 | 0.263 | –
Cc1ncc(CO)c(C=O)c1O [pyridoxal] | 0.189 | 0.5558 | –
Cc1ncc(CO)c(CN)c1O [pyridoxamine] | – | 0.8237 | –
Cc1ncc(CO)c(C(=O)O)c1O [pyridoxate] | 0.7049 | 0.4222 | –
CC(=O)C(=O)O [pyruvate] | 0.05658 | – | Log2FoldChange [2]: -0.2176
Nc1nc2[nH]cc(CN[C@H]3C=C[C@H](O)[C@@H]3O)c2c(=O)[nH]1 [queuine] | 0.3674 | – | –
O=C(O)c1cccnc1C(=O)O [quinolinate] | – | 0.4005 | –
CC1=C(/C=C/C(C)=C/C=C/C(C)=C/CO)C(C)(C)CCC1 [retinol (Vitamin A)] | – | 0.5656 | –
OC[C@@H](O)[C@@H](O)[C@@H](O)CO [ribitol] | 0.3219 | – | Log2FoldChange [1]: 0.1375
Cc1cc2nc3c(=O)[nH]c(=O)nc-3n(C[C@H](O)[C@H](O)[C@H](O)CO)c2cc1C [riboflavin (Vitamin B2)] | 0.05658 | 0.3448 | –
O=C(O)[C@H](O)[C@H](O)[C@H](O)CO [ribonate] | 0.3103 | – | Log2FoldChange [2]: -0.2863
O=P(O)(O)O[C@H]1O[C@H](CO)[C@@H](O)[C@H]1O [ribose 1-phosphate] | 0.3334 | – | –
N[C@@H](CCCCN[C@@H](CCC(=O)O)C(=O)O)C(=O)O [saccharopine] | -0.152 | – | –
CNCC(=O)O [sarcosine] | – | 0.4647 | –
O=C(O)CCCCCCCCC(=O)O [sebacate (C10-DC)] | – | 0.5261 | –
O=C(CO)[C@@H](O)[C@H](O)[C@H](O)[C@H](O)COP(=O)(O)O [sedoheptulose-7-phosphate] | 0.111 | – | –
O=C(CO)[C@@H](O)[C@H](O)[C@H](O)[C@H](O)CO [sedoheptulose] | 0.08406 | – | –
NCCc1c[nH]c2ccc(O)cc12 [serotonin] | – | 0.3219 | –
NCCCCNCCCN [spermidine] | 0.275 | 0.5361 | –
NCCCNCCCCNCCCN [spermine] | -0.1361 | 0.3674 | –
CCCCCCCCC/C=C/CC/C=C/[C@@H](O)[C@@H](N)CO [sphingadienine] | 0.3448 | 0.6781 | –
CCCCCCCCCCCCCCC[C@@H](O)[C@@H](N)COP(=O)(O)O [sphinganine-1-phosphate] | – | – | Log2FoldChange [2]: -0.2515
CCCCCCCCCCCCCCC[C@@H](O)[C@@H](N)CO [sphinganine] | 0 | – | –
CCCCCCCCCCCCC/C=C/[C@@H](O)[C@@H](N)COP(=O)(O)O [sphingosine 1-phosphate] | – | – | Log2FoldChange [2]: -0.1844
CCCCCCCCCCCCC/C=C/[C@@H](O)[C@@H](N)CO [sphingosine] | 0.1375 | 0.3561 | –

“And” between values parts separate entries of the source, which are not always exact repeats. Identical values can stand only once. Counter-ions that a name gives are not always drawn. *1 amine or outer side, *2 acyl side, *3 side chain or, on linkers, in order; H or OH if unused. Where a SMILES comes first, the peptide text is derived from it. [ ]: non-standard residue; d: D form. γGlu = O=C(O)[C@H](CCC(=O)[*:2])N[*:1]; Hyp = O=C(O)[CH]1C[CH](O)CN1; Abu = CC[C@H](N)C(=O)O
